# Percent effect of library compounds

Sequences of proteins named here, by UniProt entry; tags and fusion partners are left off. Residues count along the entry.
UniProt P9WNZ1, whole entry: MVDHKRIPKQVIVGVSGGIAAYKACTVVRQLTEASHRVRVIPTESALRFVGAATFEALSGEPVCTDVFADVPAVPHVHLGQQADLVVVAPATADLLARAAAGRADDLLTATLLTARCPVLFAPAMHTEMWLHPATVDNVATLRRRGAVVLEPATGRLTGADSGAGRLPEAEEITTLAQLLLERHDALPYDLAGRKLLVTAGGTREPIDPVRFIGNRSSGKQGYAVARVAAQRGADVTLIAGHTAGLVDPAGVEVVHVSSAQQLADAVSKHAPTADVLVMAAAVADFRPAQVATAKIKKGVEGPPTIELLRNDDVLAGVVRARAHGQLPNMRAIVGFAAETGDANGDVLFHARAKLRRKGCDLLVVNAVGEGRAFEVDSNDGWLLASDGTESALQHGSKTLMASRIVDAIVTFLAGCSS
UniProt P9WFT3, whole entry: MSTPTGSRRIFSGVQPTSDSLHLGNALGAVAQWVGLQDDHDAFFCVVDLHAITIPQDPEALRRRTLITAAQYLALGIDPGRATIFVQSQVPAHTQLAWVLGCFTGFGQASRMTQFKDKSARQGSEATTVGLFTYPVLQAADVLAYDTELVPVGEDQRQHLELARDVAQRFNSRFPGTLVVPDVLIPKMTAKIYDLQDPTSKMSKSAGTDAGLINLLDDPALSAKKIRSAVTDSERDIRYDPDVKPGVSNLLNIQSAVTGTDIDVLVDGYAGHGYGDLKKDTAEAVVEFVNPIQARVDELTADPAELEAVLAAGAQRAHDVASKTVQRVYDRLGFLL
UniProt A4I591, 1-473: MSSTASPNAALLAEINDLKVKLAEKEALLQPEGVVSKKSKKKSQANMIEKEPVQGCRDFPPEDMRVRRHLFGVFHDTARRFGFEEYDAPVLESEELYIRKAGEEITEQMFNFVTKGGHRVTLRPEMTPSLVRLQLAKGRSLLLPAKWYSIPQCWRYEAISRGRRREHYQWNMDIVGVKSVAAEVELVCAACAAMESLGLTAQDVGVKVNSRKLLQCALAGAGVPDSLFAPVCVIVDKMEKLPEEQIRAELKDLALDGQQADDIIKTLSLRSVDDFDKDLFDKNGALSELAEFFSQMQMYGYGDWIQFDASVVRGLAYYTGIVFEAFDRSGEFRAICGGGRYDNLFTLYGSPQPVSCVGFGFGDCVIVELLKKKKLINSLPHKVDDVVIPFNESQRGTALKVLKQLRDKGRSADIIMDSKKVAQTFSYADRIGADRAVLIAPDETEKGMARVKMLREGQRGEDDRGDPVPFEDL

Measurements from “University of Dundee, Small-Polar-MMV Screening Library” (2021), ChEMBL document CHEMBL3988442.

CoaBC: 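Enzyme assay of CoaBC with a phosphate dye (Biomol Green) read at 650 nm. Target: Coenzyme A biosynthesis protein CoaBC, Mycobacterium tuberculosis (UniProt P9WNZ1). Concentration: 30 µM. Higher reads as stronger inhibition, judged from the few compounds that gave an IC50. Most strong results did not repeat in a second test. Size under these conditions: about 67,000 compounds, about 40 of them at 50% or above in at least one test.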
Toxoplasma: 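Assay of Toxoplasma gondii numbers, read through their beta-galactosidase reporter with a colour substrate. Concentration: 10 µM. Higher reads as fewer parasites (inferred from which compounds were picked for retests). Of about 67,000 compounds tested this way, about 260 (0.38%) reached 50% or more in at least one test.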
Leishmania in macrophages: 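Cell assay of Leishmania donovani living inside macrophages; the read-out is not stated. Concentration: 30 µM. Higher reads as stronger inhibition (inferred: compounds with an IC50 in retests scored well above the rest). About 69,000 compounds were tested under these conditions; 1.5% (about 1,000) showed 50% or more at least once.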
MtTrpRS: 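Tryptophan-tRNA ligase, Mycobacterium tuberculosis (UniProt P9WFT3). Enzyme assay of tryptophanyl-tRNA synthetase; the read-out is not stated. Tested at 10 µM. Direction is not recorded; retested compounds ran higher, which suggests that high means inhibition. About 65,000 compounds were tested under these conditions; 0.098% (about 64) showed 50% or more at least once.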
LiHisRS: 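Histidine-tRNA ligase, Leishmania infantum (UniProt A4I591). Enzyme assay of histidyl-tRNA synthetase; the read-out is not stated. Concentration: 30 µM. Direction is inferred from retests: higher values go with stronger inhibition. The assay is labelled LdHisRS but filed under L. infantum. Size under these conditions: about 69,000 compounds, about 410 of them at 50% or above in at least one test.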

The filed quantity is “Percent Effect” (%). The record does not define 0% and 100%; most values in the screen are far below 50% and negative numbers occur (in some assays of this library far below -100). Compounds were drawn at random from those tested, without regard to their results. Two or more numbers in one place are separate tests of the same structure; such repeats can differ widely.

Cc1cnn(CC2CCCN2c2ncnc3sccc23)c1 (centres undefined) read CoaBC: 0.8739%; Toxoplasma: -17.06%; Leishmania in macrophages: 25.79%; MtTrpRS: -2.502%; LiHisRS: 16.53%. Result for CN1CCCCC12CCN(c1nncs1)C2 (centres undefined) was CoaBC: 3.158%; Toxoplasma: 5.643%; Leishmania in macrophages: 18.05% and 9.679%; MtTrpRS: 1.195%; LiHisRS: 13.27%. For CCc1nc(CN(C(C)=O)C2CCN(CCc3ccccn3)C2)no1 (centres undefined) the result was CoaBC: 2.625%; Toxoplasma: -29.5%; Leishmania in macrophages: 11.33%; MtTrpRS: -8.367%; LiHisRS: 3.39%. Result for Cc1ccc(NC2CCN(C(=O)CCc3ccsc3)CC2)nn1 was CoaBC: 3.823%; Toxoplasma: -16.72%; Leishmania in macrophages: 21.45%; MtTrpRS: 1.595%; LiHisRS: 5.769%. CC(C)(C)OC(=O)N1CCN(S(C)(=O)=O)C2(CCCCC2)C1 gave CoaBC: -2.41%; Toxoplasma: -19.38%; Leishmania in macrophages: 27.8%; MtTrpRS: -1.618%; LiHisRS: 12.09%. Result for CN(C)C(=O)c1cn[nH]c1C1CCCN1Cc1nccn1C.O=CO (centres undefined) was Toxoplasma: -30%; Leishmania in macrophages: -16.67%. With [H][C@]12CC[C@]([H])(CN(c3cnccn3)C1)N(C(=O)c1snnc1C)C2 the screen gave Toxoplasma: -8.365%; Leishmania in macrophages: 1.614%. [H][C@@]12CN(Cc3cccnc3OC)C[C@H](C(=O)N3CCCO3)[C@]1([H])CCO2 read Toxoplasma: 0.9852%; Leishmania in macrophages: 22.28%.

Cc1cnc(N2CCCn3c(nnc3CN(C)C(C)C)C2)nc1.O=C(O)C(F)(F)F gave Toxoplasma: 7.769%; Leishmania in macrophages: -4.227%. CN(C)C(=O)[C@H]1C[C@H]2OCC[C@H]2N(CCOc2ccc(Cl)cc2)C1 gave CoaBC: -9.813%; MtTrpRS: -6.202%; LiHisRS: 22.37%. For O=C(NCCNc1ccc(C(F)(F)F)cn1)c1cncc(Br)c1 the result was CoaBC: 4.872%; Toxoplasma: -7.856%; Leishmania in macrophages: 2.331%; MtTrpRS: -2.737%; LiHisRS: 10.67%. CCN(CC)c1ccc(CNC(=O)c2cccc(C)n2)cn1 read CoaBC: -1.768%; Toxoplasma: 0.1604%; Leishmania in macrophages: 7.655%; MtTrpRS: 1.556%; LiHisRS: -2.632%. [H][C@@]12C[C@@H](OCCOC)CN1CCN(C(=O)c1cccnc1)C2 gave Toxoplasma: 8.258%; Leishmania in macrophages: 3.057%. Cc1ccc(-c2nc(CN3CCn4c(C)nnc4C3)cs2)o1 gave CoaBC: -1.053%; Toxoplasma: 2.245%; Leishmania in macrophages: -0.4133%; MtTrpRS: -3.792%; LiHisRS: 18.87%. CC(C)C(=O)N1CCC(c2nc3c([nH]2)CCCNC3=O)CC1 read CoaBC: 3.68%; Toxoplasma: -34.97%; Leishmania in macrophages: -21.3%; MtTrpRS: -2.576%; LiHisRS: 4.918%. With CCC(O)(CNCc1ccncc1)c1ccc(Br)cc1 (centres undefined) the screen gave CoaBC: 0.2198%; Toxoplasma: -6.288%; Leishmania in macrophages: -12.05%; MtTrpRS: -0.07764%; LiHisRS: 20%.

O=C(NCCn1ccc(-c2ccccn2)n1)C1CCC1 gave CoaBC: -2.24%; Toxoplasma: -1.055%; Leishmania in macrophages: 2.641%; MtTrpRS: -4.58%; LiHisRS: 4.11%.

The last 2 entries again:

With CCC(O)(CNCc1ccncc1)c1ccc(Br)cc1 (centres undefined) the screen gave CoaBC: 0.2198%; Toxoplasma: -6.288%; Leishmania in macrophages: -12.05%; MtTrpRS: -0.07764%; LiHisRS: 20%.
With O=C(NCCn1ccc(-c2ccccn2)n1)C1CCC1 the screen gave CoaBC: -2.24%; Toxoplasma: -1.055%; Leishmania in macrophages: 2.641%; MtTrpRS: -4.58%; LiHisRS: 4.11%.